In patent US20210299039A1, “COMPOSITIONS AND METHODS FOR TREATING OCULAR DISEASE BY CONTACT LENS MEDIATED DRUG DELIVERY” (EyeGate Pharmaceuticals, Inc., priority 2020, published 2021):

Assays:
[1] = 40, 20, 10, 5 mg/mL loading solution, Formulation 3
[2] = New Zealand White, rabbit, in vivo

## C[C@@H]1C[C@H]2[C@@H]3CCC4=CC(=O)C=C[C@]4(C)[C@@]3(F)[C@@H](O)C[C@]2(C)[C@@]1(O)C(=O)COP(=O)(O)O [dexP, dexamethasone phosphate]
[1]; FIG. 14
  amount loaded into CL material vs concentration of dexP in loading solution: linear relationship
[1]; release over 8 hours, FIG. 15
  amount released vs concentration of dexP in loading solution: linear relationship
[2]
  time course of drug concentrations in tissues: highest at the 2-hr timepoint and decreased over time
